# Results from PubChem BioAssay AID540256 (National Center for Advancing Translational Sciences (NCATS), 2011).
# About 3,700 (1.2%) of roughly 300,000 compounds were called active. The shares of active, inactive and inconclusive entries below differ from those in the screen. Calls follow the shape of the full dose curve; tested in HEK293 cells. Potencies beside an inconclusive call are fits to weak or partial responses and may not hold up.
# Assay: qHTS for Inhibitors of binding or entry into cells for Lassa Virus; also: nearly all actives have a fitted effect of over 50% in size
# Settings: Lassa virus pseudotype entry inhibition, cell reporter; activity change, negative = inhibition: at 37.9 µM (top of the series) unless noted
# % is scaled to controls: 0 for no effect and ±100 for the full control effect; potency is read from the fitted curve at half-maximal effect.
Compound,"activity change, negative = inhibition",Potency
CCCCOc1ccc(OCCCN2CCOCC2)cc1,inactive: -5.12%,–
Cn1c(CSCc2ccc(Cl)c(Cl)c2)n[nH]c1=S,–,"inconclusive: 28.2 µM [inhibitor, single point]"
C/C(=N/NS(=O)(=O)c1ccc(Cl)cc1)c1cccc(NC(=O)c2ccncc2)c1,inactive: -8.12%,–
Cc1cc2cc(CNC(=O)NC3CCCCC3)ccc2[nH]1,inactive: 23%,–
Cn1c(N2CCCC2)nc2c1c(=O)n(Cc1ccc(F)cc1)c(=O)n2C,–,"inconclusive: 18.3 µM [inhibitor, single point]"
CCC(C)N1CCN(S(=O)(=O)Cc2ccccc2)CC1 (stereo not given),inactive: 2.79% [at 46.1 µM],–
CCC(=O)Nc1ccc2oc(-c3ccccc3Br)nc2c1,–,"inconclusive: 35.5 µM [inhibitor, single point]"
O=C1N/C(=N\N=C\c2cccs2)SC1Cc1ccc(Cl)cc1Cl (stereo not given),–,"inconclusive: 2.82 µM [inhibitor, full curve]"
CCOc1ccccc1NC(=O)Nc1ccsc1C(=O)OC,inactive: 18.7% [at 46.1 µM],–
O=C(COC(=O)C1CC(=O)N(Cc2ccccc2)C1)c1ccc(Br)cc1 (stereo not given),inactive: 8.47%,–
Cc1ccc(SCCc2cc[n+](CC(=O)c3ccccc3)cc2)cc1,inactive: 7.94%,–
O=C(Cc1ccccc1)NCCSCc1ccco1,inactive: -0.0374%,–
CC(C)(C)c1ccc(Cn2cnc(-c3ccc([N+](=O)[O-])cc3)c2)cc1,–,active: 8.91 µM
COc1nccnc1NS(=O)(=O)c1ccc(NC(=S)NC(=O)c2ccc(F)c(F)c2)cc1,–,"inconclusive: 35.5 µM [activator, partial curve, poor fit]"
CCCNC(=O)CN1C(=O)c2c(c3ccccc3n2C)C1c1ccc(OC)cc1 (stereo not given),inactive: -3.38% [at 46.1 µM],–
S=C(NCCc1ccccc1)N/N=C/c1cccc(Cl)c1Cl,inactive: 5.02%,–
CCOC(=O)c1c(NC(=O)COc2cccc3c2CCN(C)C3=O)sc2c1CCC2,–,"inconclusive: 22.4 µM [inhibitor, single point]"
COc1ccc(-c2nnn(CC(=O)N(CC(=O)NC3CCCC3)c3ccccc3F)n2)cc1OC,–,"inconclusive: 11.2 µM [inhibitor, partial curve, poor fit]"
COc1ccc(-n2c(O)c(/C=N/NS(=O)(=O)c3ccc(C)cc3)c3ccccc3c2=O)cc1OC,–,"inconclusive: 0.891 µM [inhibitor, single point]"
Cc1ccccc1NC(=O)NCCc1nc2ccccc2[nH]1,inactive: 5.66%,–
CCCNC(=O)C1CCC(Cn2c(=O)c3sccc3n(CC(=O)N3CCCC3)c2=O)CC1 (stereo not given),inactive: -2.14% [at 46.1 µM],–
O=C(/C=C/c1cccc(Cl)c1)Nn1c(-c2cccs2)nc2ccccc2c1=O,inactive: 9.58%,–
Cn1ncc(Cl)c1C(=O)Nc1cccnc1,inactive: -0.11%,–
COC(=O)c1sc2cccc(F)c2c1S(=O)(=O)Nc1cc(C)c(Cl)cc1OC,–,"inconclusive: 3.16 µM [inhibitor, single point]"

# 2 entries picked at random from the list so far, as already listed:
Compound,"activity change, negative = inhibition",Potency
COc1nccnc1NS(=O)(=O)c1ccc(NC(=S)NC(=O)c2ccc(F)c(F)c2)cc1,–,"inconclusive: 35.5 µM [activator, partial curve, poor fit]"
O=C1N/C(=N\N=C\c2cccs2)SC1Cc1ccc(Cl)cc1Cl (stereo not given),–,"inconclusive: 2.82 µM [inhibitor, full curve]"

# Look-ups from above.
# `Cn1c(CSCc2ccc(Cl)c(Cl)c2)n[nH]c1=S` – Potency: inconclusive: 28.2 µM [inhibitor, single point]
# `COc1ccc(-n2c(O)c(/C=N/NS(=O)(=O)c3ccc(C)cc3)c3ccccc3c2=O)cc1OC` – Potency: inconclusive: 0.891 µM [inhibitor, single point]

# The list continues:

Compound,"activity change, negative = inhibition",Potency
O=C(O)c1c(C(=O)N2N=C3/C(=C/c4ccccc4)CCCC3C2c2ccccc2)cccc1[N+](=O)[O-] (stereo not given),–,"inconclusive: 17.8 µM [inhibitor, single point]"
CCCCNC(=O)CCSc1nc(-c2ccc3c(c2)OCO3)cc(C(F)(F)F)n1,inactive: 11.5% [at 46.1 µM],–
CC(C)(C)C1C/C(=C/c2ccco2)C(=O)/C(=C/c2ccco2)C1 (stereo not given),–,"inconclusive: 10.3 µM [inhibitor, partial curve]"
C=CCNc1nc2c(c(=O)n(C)c(=O)n2C)n1CCCCCC,inactive: -42.4%,–
Cn1cc(Cl)c(C(=O)Nc2cnn(Cc3ccc(F)cc3)c2)n1,–,"inconclusive: 0.184 µM [inhibitor, full curve]"
O=C(NCc1cccnc1)c1c[nH]c2cc3c(cc2c1=O)OCCO3,–,"inconclusive: 29.1 µM [inhibitor, single point]"
COc1ccc(C2Nc3ccccc3C(=O)N2Cc2ccco2)cc1COc1ccc([N+](=O)[O-])cc1 (stereo not given),–,"inconclusive: 1.41 µM [inhibitor, partial curve, poor fit]"
O=C(Nc1ccc2c(c1)OCCO2)c1ccc(Cl)cc1Cl,–,"inconclusive: 6.31 µM [inhibitor, single point]"
Cn1ncc(Oc2ccc([N+](=O)[O-])cc2)c(Cl)c1=O,inactive: 0.238%,–
O=C(/C=C\Nc1ccc(Br)cc1)c1cccnc1,–,"inconclusive: 22.4 µM [inhibitor, single point]"
CCCC(=O)NNC(=O)c1ccoc1C,–,"inconclusive: 14.1 µM [activator, partial curve, poor fit]"
Cc1nn(Cc2ccccc2)c(Cl)c1C(=O)NCCc1ccc(Cl)cc1,–,"inconclusive: 7.31 µM [inhibitor, partial curve]"
COc1ccc2c(c1OC)CN1CCc3cc4c(cc3C1C2)OCO4 (stereo not given),–,"inconclusive: 0.562 µM [inhibitor, full curve, poor fit]"
COc1ccc(S(=O)(=O)N2CCN(Cc3cccc(F)c3)CC2)cc1,–,"inconclusive: 11.2 µM [inhibitor, partial curve, poor fit]"
CC[n+]1c(C=C2C=C(C)OC(C)=C2)sc2ccccc21,–,active: 5.01 µM
O=C(CSc1nnc(NC(=O)c2ccccc2F)s1)NCc1ccc(F)cc1,inactive: -14.7% [at 46.1 µM],–
CCc1cccc2c(C(=O)CN3C(=O)NC4(CCc5ccccc54)C3=O)c[nH]c12 (stereo not given),–,"inconclusive: 7.08 µM [inhibitor, partial curve]"
c1ccc(CN2CCC3(CC2)Nc2ccccc2CO3)cc1,inactive: -1.27%,–
Clc1ccccc1-c1nnc(SCc2nc(-c3ccccc3)no2)n1-c1ccccc1,–,"inconclusive: 25.1 µM [inhibitor, single point]"
Cc1ccc(C(=O)NCC(=O)OCC(=O)Nc2cc(S(=O)(=O)N3CCOCC3)ccc2C)cc1,–,"inconclusive: 12.6 µM [activator, partial curve, poor fit]"
O=C(NCC1CCCCN1)c1cc(OCC(F)(F)F)ccc1OCC(F)(F)F (stereo not given),–,"inconclusive: 29.1 µM [inhibitor, single point]"
CC(=O)c1cc(-c2ccccc2)n(CCC(=O)NC2CCCCC2)c1C,–,"inconclusive: 3.98 µM [activator, single point]"
CNc1ccccc1C(=O)OC(C)C(=O)Nc1ccc(S(=O)(=O)N2CCCC2)cc1 (stereo not given),–,"inconclusive: 8.91 µM [inhibitor, partial curve, poor fit]"
O=c1c2c3c(sc2n(CCN2CCOCC2)c(=O)n1Cc1ccco1)CCCCC3,–,"inconclusive: 3.26 µM [inhibitor, full curve]"

Compound,"activity change, negative = inhibition",Potency
Cc1ccc(CN(Cc2ccccc2)C(=S)Nc2ccccc2C)o1,–,"inconclusive: 3.16 µM [inhibitor, single point]"
O=C(c1cc(-c2cccc(O)c2)on1)N1CCCCCC1,–,"inconclusive: 35.5 µM [inhibitor, single point]"
Nc1c(S(=O)(=O)c2cc(Cl)ccc2Cl)c2nc3ccccc3nc2n1CCN1CCOCC1,–,"inconclusive: 32.6 µM [inhibitor, single point]"
COCCn1c(SCC(=O)Nc2nc(C)c(Cl)cc2Cl)nc2ccccc21,–,active: 23.1 µM
Cc1cc(NC(=O)COC(=O)c2c(C)nn(-c3ccccc3)c2C)no1,–,active: 18.3 µM
CC(C)(C)c1ccc(C(=O)NNC(=S)NC(=O)c2cccnc2)cc1,–,"inconclusive: 8.91 µM [inhibitor, partial curve, poor fit]"
Cn1ccnc1SCC(=O)Nc1cccc2ccccc12,inactive: 17.9%,–
Cc1ccc(S(=O)(=O)Nc2cc(C(=O)N3CCC4(CC3)OCCO4)ccc2N2CCCCC2)cc1,–,"inconclusive: 10 µM [inhibitor, partial curve]"
Cc1cccc(OCC(=O)N(Cc2ccc(N(C)C)cc2)Cc2ccco2)c1C,–,"inconclusive: 1.78 µM [inhibitor, partial curve, poor fit]"
O=C(c1cccc(S(=O)(=O)N2CCc3ccccc3C2)c1)N1CCN(c2ccc(O)cc2)CC1,–,"inconclusive: 10 µM [inhibitor, partial curve]"
Cc1cc(C)nc(Nc2nc3ccccc3[nH]2)n1,–,"inconclusive: 10.3 µM [activator, partial curve, poor fit]"
CC(C)Cn1c(C(C)C)nc([N+](=O)[O-])c1S(=O)(=O)c1ccc(F)cc1,inactive: -25.4%,–
COc1ccc(C2=NN(C(=O)COC(=O)c3ccc(S(C)(=O)=O)c([N+](=O)[O-])c3)C(c3ccco3)C2)cc1 (stereo not given),–,"inconclusive: 20 µM [inhibitor, single point]"
O=[N+]([O-])c1ccc(S(=O)(=O)CC2CSc3nc4ccccc4n32)cc1 (stereo not given),–,"inconclusive: 25.1 µM [inhibitor, partial curve, poor fit]"
CCCC1CCC(C(=O)n2nc(N)c3cc4ccc(OC)cc4nc32)CC1 (stereo not given),inactive: -0.962%,–
CCc1cc2c(C)ccc(C)c2nc1SCC(=O)Nc1cc(C)on1,–,"inconclusive: 35.5 µM [inhibitor, single point]"
C[C@@H]1CC[C@H]2C(=O)N(Cc3cccc([N+](=O)[O-])c3)C[C@H](O)CN2[C@@H]1c1cccc(Br)c1,inactive: 6.91% [at 14.3 µM],–
O=S(=O)(NCc1ccco1)c1ccc(Cl)s1,inactive: 4.98% [at 46.1 µM],–
CCOc1ccc(-c2cc(C(=O)N/N=C(\C)c3cccnc3)c3ccccc3n2)cc1,–,"inconclusive: 4.47 µM [inhibitor, full curve]"
Cc1cc(C)c(C)c(S(=O)(=O)N2CCN(C(=O)c3cc(=O)[nH]c4ccccc34)CC2)c1C,–,"inconclusive: 13 µM [inhibitor, partial curve]"
O=C(N/C(=C\c1ccc(Br)cc1)C(=O)N1CCOCC1)c1ccc(Br)o1,inactive: -0.393% [at 46.1 µM],–
O=S(=O)(NCC(c1ccco1)N1CCc2ccccc2C1)c1ccc(Br)cc1 (stereo not given),–,"inconclusive: 22.4 µM [inhibitor, single point]"
